Experimental data as given in patent publication US20100286056A1, “COMPOSITIONS FOR REDUCING OXIDATIVE STRESS AND USES THEREOF” (priority 2007, published 2010).
Part of at least one peptide drawing is inferred or uncertain, most often the ends. Square brackets hold non-standard residues; d marks the D form. Peptide text beside a SMILES is read from it.

Experiments:
human dermal fibroblasts = test: UVA-induced intracellular amplification of ROS (dihydrorhodamine 123, flow cytometry); format: cell-based; details: for UVA-induced intracellular amplification of ROS (oxidative stress): 10^-8 M peptide, 24 h pre-incubation, UVA 10 J/cm^2, significant, p<0.001 (FIG. 1)
Experimental: The modulating effect of the tripeptides […]) and Thyrotropin Releasing Hormones (TRH, Protirelin, Thyoliberin, […]) was examined on human dermal fibroblasts that were seeded into 3.5 cm^2 tissue culture dishes in a density of 150,000 per dish in […] medium. Two days after seeding the cells, the medium supplemented with 10% foetal calf serum, 1% L-glutamine and 1% penicillin/streptomycin was exchanged with serum-free RPMI medium and pre-incubated for 24 hours with KPV, […] Subsequently, the cells were exposed to a physiological dose of UVA radiation (10 J/cm^2). Immediately after radiation, the cells were incubated with 5 μM dihydrorhodamine 123 plus 5 mM glucose in phosphate buffer (PBS) for 30 minutes. Subsequently, the cells were trypsinized, resuspended in PBS with 5 mM glucose and analyzed by means of flow cytometry (FACS, FACSCalibur with 488 nm argon laser). The above dihydrorhodamine probe is oxidized in the presence of intracellular ROS into green fluorescent […] and, thus, can be measured fluorometrically. A total of 10×10^3 cells per probe were analyzed and evaluated using CELL-QUEST software. The median of the FL-1 channel was used as parameter for the intracellular ROS amount, since it represents the maximum number of cells with the highest fluorescence. Duplicate and triplicate analyses were carried out and all assays were reproduced three times in independent experiments.

B16.F1 melanoma cells = test: Extracellular melanin accumulation (optical density 405 nm); format: cell-based, mouse; details: peptides at 10^-6, 10^-8 and 10^-10 M; NDP-α-MSH 10^-8 M; 72 hrs (FIG. 3)
Source text: It is also preferred that the compounds of the invention have no or merely a negligible melanotropic effect. “Melanotropic effect” means that the compound induces the extracellular melanin accumulation in a cell assay in accordance with the method described in the appended example 2 and/or in accordance with the method described in Siegrist and Eberle (Anal. Biochem. 1986; 159; 191-197), title “In situ melanin assay for MSH using mouse B16 melanoma cells in culture”. “No or negligible” means that the mean melanin accumulation which is induced by the compounds of the invention exceeds the mean melanin accumulation which is induced by at least one of the two compounds as exemplified in Example 2 by not more than about 40%, 30%, 20%, 15%, 10%, 5%, 2.5%, 2% or 1%, preferably under conditions which equate to or are identical with those set out in Example 2. The skilled person is able to justify which assay conditions/assays equate with the assay/conditions exemplified in the appended examples. The melanin accumulation evaluated in Example 2 is depicted in FIG. 3. The effect of the compounds of the invention on extracellular melanin accumulation is thus determinable by the methods disclosed herein. […]

Structure (SMILES) | UVA-induced intracellular amplification of ROS (oxidative stress) (human dermal fibroblasts) | effect on UVA-induced intracellular amplification of ROS compared to vitamin C (ascorbate) (human dermal fibroblasts; peptide 10^-8M vs vitamin C at 10^-2M as printed (FIG. 2)) | melanotropic effect (extracellular melanin accumulation) (B16.F1 melanoma cells)
C[C@@H](O)[C@H](NC(=O)[C@H]1CCCN1C(=O)[C@@H](N)CCCCN)C(=O)O [KPT, Lys-D-Pro-Thr] (H-Lys-[dP]-Thr-OH) | suppressed | comparable with that of vitamin C | did not have any melanotropic effect
CC(C)[C@H](NC(=O)[C@@H]1CCCN1C(=O)[C@@H](N)CCCCN)C(=O)O [KPV, Lys-Pro-Val] (H-Lys-Pro-Val-OH) | suppressed | – | did not have any melanotropic effect
